Assays:
Sprague-Dawley rats = assay: PPAR-γ agonist (pioglitazone)-mediated fluid retention / plasma expansion model, 7 days, drugs in drinking water; format: in vivo, rat; conditions: pioglitazone diet, mean ± SEM
Source text: It has been recognized in human clinical practice that an undesirable side effect of PPAR-γ agonists of the thiazolidinedione class is fluid retention and edema, which limits their use in patients with congestive heart failure. The mechanism of action of the thiazolidinediones is believed to be through stimulation of expression of the epithelial sodium channel (ENaC) in the kidney, resulting in an increased uptake of sodium ions from the distal tubule. Sodium retention and the associated expansion of extracellular fluid volume are characteristic features of congestive heart failure in multiple species. […] The sodium channel blocker amiloride was delivered in drinking water to a third group of rats as a comparator. Plasma expansion was measured by hematocrit. […] Food weight was recorded to measure consumption over the course of the experiment. […] Full bottles were pre-weighed and the weights recorded to allow consumption to be measured over the course of the experiment. On days 1 and 7, rats were warmed using a heating pad and lightly anesthetized using isoflurane. Using a sterile scalpel blade, a small tail nick was made on the distal one third of the tail. […] Plasma volume was determined using a microhematocrit capillary tube reader card. On day 7, rats, food and water bottles were again weighed and recorded and hematocrits were determined using blood collected by a tail nick.

purpose-bred beagles = assay: 24 h urine collection (glucose excretion, volume, electrolytes) in dogs; format: in vivo, dog; conditions: treatment group
Description: Groups of four purpose-bred beagles per cohort were administered ascending doses of bexagliflozin in the form of a proline co-crystal consisting of two moles of L-proline for every mole of bexagliflozin. The co-crystal was dissolved in 10% PEG400 and administered by oral gavage to dogs that had been fasted overnight. Control dogs were administered 10% PEG400. One hour after dosing, glucose solution (2 g kg^−1, 5 ml kg^−1) was administered by gavage. Serum glucose concentrations were quantitated by an automated clinical chemistry analyzer for samples collected before dosing, before glucose challenge, and 15, 30, 60, and 120 min after glucose challenge. Urine was collected from 0 to 4 h, 4 to 8 h and 8 to 24 h after dosing for electrolyte analyses (Na^+, K^+, Cl^− and Ca^2+) and glucose measurement. Whole blood samples of approximately 500 μL were collected from the cephalic vein 0, 0.25, 0.5, 1, 2, 4, 8, 12 and 24 h after dosing for pharmacokinetic analysis.
Urine output increased in the treatment group, consistent with an osmotic diuresis or with a role for the inhibited transporters in water reuptake in the proximal tubule.

SMILES | Food Consumption (Sprague-Dawley rats) [g per 24 h] | food consumption vs control (purpose-bred beagles) | water consumption vs control (purpose-bred beagles; did not reach statistical significance)
OC[C@H]1O[C@@H](c2ccc(Cl)c(Cc3ccc(OCCOC4CC4)cc3)c2)[C@H](O)[C@@H](O)[C@@H]1O [Bexagliflozin, (2S,3R,4R,5 S,6R)-2-(4-chloro-3-(4-(2-cyclopropoxyethoxy)benzyl)phenyl)-6-(hydroxymethyl)tetrahydro-2H-pyran-3,4,5-triol] | 34.4 ± 1.0 | no significant change in food consumption | trend toward higher water consumption
N=C(N)NC(=O)c1nc(Cl)c(N)nc1N [Amiloride, reference compound] | 30.9 ± 1.1 |  | 
